The record followed here is paper PMC10406714.

Chains of the proteins cited; added tags and fusions are not shown.
UniProt P25963: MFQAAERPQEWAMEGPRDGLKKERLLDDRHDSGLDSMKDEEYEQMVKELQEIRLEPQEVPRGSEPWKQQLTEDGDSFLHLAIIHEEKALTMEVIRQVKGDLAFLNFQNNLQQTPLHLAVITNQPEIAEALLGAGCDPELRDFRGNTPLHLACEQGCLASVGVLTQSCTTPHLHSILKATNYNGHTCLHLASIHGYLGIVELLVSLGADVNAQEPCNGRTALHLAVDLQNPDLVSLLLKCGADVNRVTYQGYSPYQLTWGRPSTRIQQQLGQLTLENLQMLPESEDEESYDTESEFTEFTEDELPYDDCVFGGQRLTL

The test concerns the target T1, FLAG-TRIM64 (human) (UniProt A6NGJ6).
T1 sequence: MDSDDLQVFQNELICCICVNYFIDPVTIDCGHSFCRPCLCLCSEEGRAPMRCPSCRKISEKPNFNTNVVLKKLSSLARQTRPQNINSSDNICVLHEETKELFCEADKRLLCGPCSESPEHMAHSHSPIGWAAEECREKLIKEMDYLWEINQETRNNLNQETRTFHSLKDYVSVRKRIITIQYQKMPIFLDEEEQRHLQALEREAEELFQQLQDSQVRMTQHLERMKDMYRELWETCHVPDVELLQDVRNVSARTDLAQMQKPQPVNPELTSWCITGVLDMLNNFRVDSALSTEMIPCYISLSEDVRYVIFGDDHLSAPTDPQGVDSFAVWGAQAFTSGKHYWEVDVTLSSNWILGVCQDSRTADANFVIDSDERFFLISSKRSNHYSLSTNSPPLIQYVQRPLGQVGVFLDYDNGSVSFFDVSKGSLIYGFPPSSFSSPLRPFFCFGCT
The test can be described thus: affinity purification with mass spectrometry; lysate of 293 T cells stably expressing Flag-TRIM64 (RIPA: 1% Triton X-100, 150 mM NaCl, 20 mM Tris pH 7.5); anti-Flag magnetic beads overnight at 4 °C; eluted with Flag peptide; SDS-PAGE, Coomassie bands excised, in-gel trypsin digestion, LC/MS.

No constants are given. Whether binding was seen depends on the method and setting. In cells and extracts the contact can be indirect. A yes stands for co-enrichment or nearness to the bait. Other partners may have been found. Where a sequence is shown, tags or fusion partners need not be part of it.

In the case of IκBα (from UniProt P25963 1-317), the binding entry is “binds”.
